Results: the supplement of paper PMC5949888
± gives the standard deviation of the averaged measurements. Most values lie at the floor of the assay. Slopes are relative: functional sequences can read slightly below zero.

Each substance was assayed on Saccharomyces cerevisiae PS128 hsf1 delta, HSF1(1-493) fusion (assay: growth estimate (transactivation domain function in HSF1 fusion, heat-shock survival) (a.u. (slope of normalised read count over time)); higher = stronger growth at 37°C, i.e. more transactivation activity). Conditions: library: random library.

Substance | growth estimate
RIRNAKIGRFLYGVKMTKRH | < -0.25
SPCVRTIENLMP | < -0.25
RKWRRRSNPLFKTEVVDLDR | < -0.25
CGYPTYKSCRGMGISPRPYQ | < -0.25
ARKGLLRIISDR | < -0.25
TLKQPIRDN | < -0.25
QQRFNHGSVPAAGVTAGGRD | < -0.25
IQDRRINIKGEVTIECPDRL | < -0.25
LGRSRQI | < -0.25
LFETSGLGAESRGVDDAGAY | < -0.25
FGIIRNDEVEAGAPTGHGAA | < -0.25
SSFTW | < -0.25
EIG | < -0.25
ASGESLSSVLPTAPSYVRGR | < -0.25
YYDSVPHLGSGTRS | < -0.25
EGVPQRISCTHRHRLGKCLP | < -0.25
HVHPLA | < -0.25
HIVIDRRSCGRHPTIVGMGV | < -0.25
WLMISIVCEA | < -0.25
QGSRAFAAMVQFGIIPNAWP | < -0.25
KTTLVRSPVWRPPLYLISIT | < -0.25
ANS | < -0.25
GNLA | -0.248

Reformatted with each value named: entries from further up
EIG
  growth estimate: < -0.25
ASGESLSSVLPTAPSYVRGR
  growth estimate: < -0.25
YYDSVPHLGSGTRS
  growth estimate: < -0.25
EGVPQRISCTHRHRLGKCLP
  growth estimate: < -0.25

(further entries)

Substance | growth estimate
GVIHIQVRT | < -0.25
NQRPRRISRPTVCFWLKLRG | < -0.25
RGEIVPNIAA | < -0.25
RRLLKVLT | < -0.25
QESLWADAVLHSRF | < -0.25
VDRAILPAL | < -0.25
LYFLGGVKVCSATALLVKSS | < -0.25
PFVLVTQPPYRVSV | < -0.25
CMTSVKFPPSFECAVEVDRL | < -0.25
RYSAPAGEFNWSCYQREGT | -0.243
FGTENGNRIPPVQREVP | < -0.25
TCSAQPLGPPNQARVYTVSR | < -0.25
SPRKPFSCKRTRVSFDGRHN | < -0.25
ICMLIMRWGRNGRSLRRLQV | < -0.25
SLPLLMLHLGMLRRNAQRIV | < -0.25
VSVVSTLNTTAVVG | < -0.25
ASGKNHSSKDKVRESSSPPR | < -0.25
WGTVTGQ | < -0.25
PLGLKFR | < -0.25
EITAQMPGLTHNVELDSSGS | < -0.25
STIKAVRALTQRLRSVRCNS | < -0.25
AFLGGDIGLSIGGACGFMYV | -0.206
ASVRLLGRSSSRGSSVDLVV | < -0.25

Substance | growth estimate
RKRLYRKEACR | < -0.25
AEDSAAM | -0.233
LHSLPARCIT | < -0.25
SLRICSQWDWNVPSPILGQR | < -0.25
NVMC | < -0.25
PFDVAGSLTRFPWDGRALSN | < -0.25
YLIESPGLTRSGLV | < -0.25
RVYRYNPTVERVSESPVR | < -0.25
LGTVMREFSMQLLCWQLRVP | < -0.25
LVGC | < -0.25
VDLLLRFNG | < -0.25
LTMLVLRTSRIRCFIDDIHH | < -0.25
ITRELDSTCISNF | < -0.25
GNVRHNTSISSRLILFCQFL | -0.129
QEARLEWSSVR | < -0.25
SKETMLIWGASARSRISFRV | < -0.25
LDPLNRGPGE | < -0.25
ACKKA | < -0.25
LVDSKLPYKSIIYRHDCNQS | < -0.25
STVCVHFCFERL | < -0.25
LQV | -0.2492 ± 0.0012
HVHDILEQTPGHVQMVDGII | < -0.25
LEGTSNATNLRYSL | < -0.25

Substance | growth estimate
NVGMFCASYWDGRHWHYEDA | < -0.25
NHGTKKERRAGINTYLPQNG | -0.231
PPPACWNSQLSHMNQYKTSL | -0.231
KASDSTHRGPPLSLGIKRRR | < -0.25
QSQR | < -0.25
LVFYSKSSLVGTEDIIDTPF | < -0.25
IGSMCQTSGYASN | < -0.25
PYHQRVSGDRLGTSIGSCAL | -0.233
PRWVSRWRRGEGFCPYAAGP | -0.246
GSSGQWGVLRYELLKNVNLV | < -0.25
SGVRAMRRPRVMGGENNGGY | < -0.25
GAQSNLPSIS | < -0.25
AMMIDCCIADDHSGCKH | < -0.25
GMTFWIRPTAPRGIYKTFIE | < -0.25
ELACRRR | < -0.25
TRGVSRDRMHGKISGSQIRR | < -0.25
CLGQARQDYGTVRMCRGQRS | < -0.25
GRKGPVTAAGSRRLG | < -0.25
LLRHLRHFM | < -0.25
ATRESASVCAMRDTVVGAAP | < -0.25
TCGGSFPLGKHEN | < -0.25
DDRW | < -0.25
GRVERAVNCLVCTATNARYR | < -0.25

Taken from the results shown (six entries):
Substance | growth estimate
YYDSVPHLGSGTRS | < -0.25
EGVPQRISCTHRHRLGKCLP | < -0.25
HVHPLA | < -0.25
HIVIDRRSCGRHPTIVGMGV | < -0.25
WLMISIVCEA | < -0.25
QGSRAFAAMVQFGIIPNAWP | < -0.25

Going on with the list:

Substance | growth estimate
AWSVRTVLCSLGPCEGPKLR | < -0.25
TVT | < -0.25
PDALATYPC | < -0.25
MKDIKAATIAGCRSGAPKSG | < -0.25
FHGISRGGGYRSCSTGQS | < -0.25
KSLVRRINSSILDSQVMRAV | < -0.25
SVVGGAARGRMGSES | < -0.25
RLAAAAKH | < -0.25
CLDCLGFHMEETGPGTPSQS | < -0.25
GPQRLGRFHRAFSVFLRAPP | < -0.25
CMVQGAGKLVLLVYTLSKCC | < -0.25
IRFKMQIGAR | < -0.25
ILLSVTELHTEFRTLHFRPI | < -0.25
GPPTDGEGQRRGPYSVPVCA | < -0.25
TLLTAPEGCRCNCRRAPLCP | < -0.25
QNL | < -0.25
VHKSSDR | < -0.25
ARLLSTLLSAV | < -0.25
DSVGGATTAYCCNISLSD | < -0.25
HVHRAGPYKCSRVWSSESGG | < -0.25
CGFTQP | < -0.25
QIRASRVH | < -0.25
VTKSQPHV | < -0.25

Substance | growth estimate
AGPGISENDMSLAMAFCLVS | -0.217
LSSTVSTLGSLVRTISSDT | < -0.25
TDC | < -0.25
AQPPNHEGGVCLATYSASAG | < -0.25
REVLSVQDYYRGGGEENSDD | -0.215
TTVC | < -0.25
FSLMSRCNGSPYLPSPE | < -0.25
VRVTVPAHDISLITART | < -0.25
SKVLGVRRRRHEVS | < -0.25
HGQSRNTQPGHRAEISHTAL | < -0.25
EKVERT | < -0.25
ICETVAKRAQESSDDQVLLD | < -0.25
QRGLSFASNSVHWKGWGVRR | < -0.25
WKQPTRADRSAYCATTGLGT | < -0.25
GIPEL | -0.231
NVIRVALIQSYI | < -0.25
RGAIGAALHCSKRTREGYAL | < -0.25
SIDI | < -0.25
EQPGGPNG | < -0.25
KSPRRCEYVL | < -0.25
GPTGWQFVLFGSS | < -0.25
AQVLFCRWFLGHGQNPVGKD | < -0.25
GLSDAIEV | < -0.25

Substance | growth estimate
GFFRLRACVRLWHRTDPLDW | -0.238
VGPGDEAQLALNQRREVRWL | < -0.25
GPLEPIPYPVEYESNDGVLA | -0.245
QVCRTNLVIPFDA | < -0.25
HFLS | < -0.25
IRDFRLGRSYQYH | < -0.25
PTR | < -0.25
LWHRARAGA | < -0.25
ERFVHDLDKEIASEEQRACQ | < -0.25
KKDGLFISRSAWRNMNRPNP | < -0.25
PKLRFTRLMGLSL | < -0.25
LHNTGV | < -0.25
SILRGTVPALVH | < -0.25
PHWGRCDIAATMGSHSGHHE | < -0.25
EQDELMGQLALIQG | < -0.25
RQRRSIVTQS | < -0.25
TRSMIQDKP | < -0.25
RWV | < -0.25
HLGIRSDTVRRGSYGGGIWH | < -0.25
TRGILLAIQFGTWYRSQVSA | < -0.25
